Data taken from PubChem BioAssay AID248 (DTP/NCI, 2004).
The list is a part of this screen's results and no random one: its compounds were picked by chemical class. Other doses and runs of a compound may be missing. T/C: endpoint of the treated group in % of that of the vehicle group. Some entries give survivors of the animals treated and no T/C: the source holds a T/C of zero for them, seemingly a mark for toxic or unscored doses. Some doses without a T/C left all or most animals alive at the check, yet need not have been tolerated: the source hardly ever lists a survival T/C far under the control, and the zero likely stands for such cases as well. Counts of survivors are from the toxicity check (mostly the fifth day) where no day follows; animals may have died later. Schedule codes are those of the source, taken here to give the interval after Q, in days (D) or hours (H), and the number of doses after X. Some schedules carry Z or #; the key to these is not given. Some entries hold several experiments; the values are given in rising order. For survival time, this PubChem deposit counts one and a half times the control or more as active, and values a quarter to a half above the control carry no call in these data; other NCI protocols may use other cut-offs. Some T/C values carry the count of animals alive at the toxicity check (mostly the fifth day); where neither a count nor a note follows, no animal had died by that day.

Test system: L1210 leukemia ip in BDF1 mice, survival T/C
Assay: NCI In Vivo Anticancer Drug Screen. Data for tumor model L1210 Leukemia (intraperitoneal) in B6D2F1 (BDF1) mice
Conditions: higher T/C = longer survival
[1] = T/C endpoint: mean survival time, dose: 256.0 mg/kg/injection, schedule: Q01DX009 (ip), vehicle: saline

NC1CCCCC1.O=P(O)(NCCCO)N(CCCl)CCCl
survivor count (T/C endpoint: mean survival time, dose: 256.0 mg/kg/injection, schedule: Q01DX005 (ip), vehicle: saline): 10 of 10
T/C [1]: 95 % of control [9 of 10 alive]
survivor count [1]: 9 of 10
T/C (T/C endpoint: mean survival time, dose: 256.0 mg/kg/injection, schedule: Q01DX009 (oral), vehicle: saline): 125 % of control [9 of 10 alive]
T/C (T/C endpoint: mean survival time, dose: 256.0 mg/kg/injection, schedule: Q01DX009 (sc), vehicle: saline): 92 % of control
T/C (T/C endpoint: mean survival time, dose: 256.0 mg/kg/injection, schedule: Q04DX003 (ip), vehicle: saline): 194 % of control
T/C (T/C endpoint: mean survival time, dose: 256.0 mg/kg/injection, schedule: Q04DX003 (iv), vehicle: saline): 122 % of control
T/C (T/C endpoint: mean survival time, dose: 256.0 mg/kg/injection, schedule: Q08DX002 (ip), vehicle: saline): 156 % of control
T/C (T/C endpoint: mean survival time, dose: 256.0 mg/kg/injection, schedule: Q## X002 (ip), vehicle: saline): 144 % of control
T/C (T/C endpoint: mean survival time, dose: 256.0 mg/kg/injection, schedule: Q## X003 (ip), vehicle: saline): 172 % of control
T/C (T/C endpoint: mean survival time, dose: 256.0 mg/kg/injection, schedule: Q## X008 (ip), vehicle: saline): 125 % of control
T/C (T/C endpoint: mean survival time, dose: 256.0 mg/kg/injection, schedule: Q## X016 (ip), vehicle: saline): 121 % of control
T/C (T/C endpoint: mean survival time, dose: 256.0 mg/kg/injection, schedule: Q## X024 (ip), vehicle: saline): 129 % of control
T/C (T/C endpoint: mean survival time, dose: 266.0 mg/kg/injection, schedule: Q01DX001 (ip), vehicle: saline): 137 % of control
T/C (T/C endpoint: mean survival time, dose: 325.0 mg/kg/injection, schedule: Q01DX Z (ip), vehicle: saline): 217 % of control
T/C (T/C endpoint: mean survival time, dose: 400.0 mg/kg/injection, schedule: Q01DX001 (ip), vehicle: saline): 245 % of control
survivor count (T/C endpoint: mean survival time, dose: 400.0 mg/kg/injection, schedule: Q01DX Z (ip), vehicle: saline): 6 of 6
survivor count (T/C endpoint: mean survival time, dose: 488.0 mg/kg/injection, schedule: Q01DX Z (ip), vehicle: saline): 0 of 6
T/C (T/C endpoint: mean survival time, dose: 500.0 mg/kg/injection, schedule: Q01DX001 (ip), vehicle: clinical formulation): 109 % of control [4 of 6 alive]
T/C (T/C endpoint: mean survival time, dose: 500.0 mg/kg/injection, schedule: Q01DX001 (ip), vehicle: saline): 146 % of control [5 of 6 alive]
T/C (T/C endpoint: mean survival time, dose: 500.0 mg/kg/injection, schedule: Q01DX009 (oral), vehicle: saline): 108 % of control
T/C (T/C endpoint: mean survival time, dose: 512.0 mg/kg/injection, schedule: Q01DX001 (ip), vehicle: saline): 381 [9 of 10 alive] and 388 % of control [8 of 10 alive]
survivor count (T/C endpoint: mean survival time, dose: 512.0 mg/kg/injection, schedule: Q01DX001 (iv), vehicle: saline): 6 of 10
T/C (T/C endpoint: mean survival time, dose: 512.0 mg/kg/injection, schedule: Q01DX001 (oral), vehicle: saline): 125 % of control
T/C (T/C endpoint: mean survival time, dose: 512.0 mg/kg/injection, schedule: Q01DX001 (sc), vehicle: saline): 111 % of control [9 of 10 alive]
T/C (T/C endpoint: mean survival time, dose: 512.0 mg/kg/injection, schedule: Q01DX009 (oral), vehicle: saline): 93 % of control
T/C (T/C endpoint: mean survival time, dose: 512.0 mg/kg/injection, schedule: Q04DX003 (ip), vehicle: saline): 86 % of control [9 of 10 alive]
survivor count (T/C endpoint: mean survival time, dose: 512.0 mg/kg/injection, schedule: Q04DX003 (iv), vehicle: saline): 0 of 10
T/C (T/C endpoint: mean survival time, dose: 512.0 mg/kg/injection, schedule: Q08DX002 (ip), vehicle: saline): 197 % of control [8 of 10 alive]
T/C (T/C endpoint: mean survival time, dose: 512.0 mg/kg/injection, schedule: Q## X002 (ip), vehicle: saline): 132 % of control
T/C (T/C endpoint: mean survival time, dose: 512.0 mg/kg/injection, schedule: Q## X003 (ip), vehicle: saline): 87 % of control
T/C (T/C endpoint: mean survival time, dose: 512.0 mg/kg/injection, schedule: Q## X008 (ip), vehicle: saline): 215 % of control
T/C (T/C endpoint: mean survival time, dose: 512.0 mg/kg/injection, schedule: Q## X016 (ip), vehicle: saline): 176 % of control
T/C (T/C endpoint: mean survival time, dose: 512.0 mg/kg/injection, schedule: Q## X024 (ip), vehicle: saline): 121 % of control
T/C (T/C endpoint: mean survival time, dose: 600.0 mg/kg/injection, schedule: Q01DX001 (ip), vehicle: saline): 148 and 247 % of control
survivor count (T/C endpoint: mean survival time, dose: 750.0 mg/kg/injection, schedule: Q01DX001 (ip), vehicle: clinical formulation): 2 of 6
survivor count (T/C endpoint: mean survival time, dose: 750.0 mg/kg/injection, schedule: Q01DX001 (ip), vehicle: saline): 3 of 6
T/C (T/C endpoint: mean survival time, dose: 900.0 mg/kg/injection, schedule: Q01DX001 (ip), vehicle: saline): 225 % of control
survivor count (T/C endpoint: mean survival time, dose: 1024.0 mg/kg/injection, schedule: Q01DX001 (ip), vehicle: saline): 1 of 10 and 2 of 10
survivor count (T/C endpoint: mean survival time, dose: 1024.0 mg/kg/injection, schedule: Q01DX001 (iv), vehicle: saline): 0 of 10
T/C (T/C endpoint: mean survival time, dose: 1024.0 mg/kg/injection, schedule: Q01DX001 (oral), vehicle: saline): 114 % of control
survivor count (T/C endpoint: mean survival time, dose: 1024.0 mg/kg/injection, schedule: Q01DX001 (sc), vehicle: saline): 4 of 10
survivor count (T/C endpoint: mean survival time, dose: 1024.0 mg/kg/injection, schedule: Q08DX002 (ip), vehicle: saline): 3 of 10
survivor count (T/C endpoint: mean survival time, dose: 1024.0 mg/kg/injection, schedule: Q## X002 (ip), vehicle: saline): 3 of 10
survivor count (T/C endpoint: mean survival time, dose: 1024.0 mg/kg/injection, schedule: Q## X008 (ip), vehicle: saline): 3 of 10
survivor count (T/C endpoint: mean survival time, dose: 1024.0 mg/kg/injection, schedule: Q## X016 (ip), vehicle: saline): 6 of 10
T/C (T/C endpoint: mean survival time, dose: 1350.0 mg/kg/injection, schedule: Q01DX001 (ip), vehicle: saline): 95 % of control
survivor count (T/C endpoint: mean survival time, dose: 2048.0 mg/kg/injection, schedule: Q01DX001 (oral), vehicle: saline): 6 of 10
T/C (T/C endpoint: median survival time, dose: 108.0 mg/kg/injection, schedule: Q04DX003 (ip), vehicle: steroid suspending solution): 150 % of control
T/C (T/C endpoint: median survival time, dose: 108.0 mg/kg/injection, schedule: Q04DX003 (sc), vehicle: steroid suspending solution): 100 % of control
T/C (T/C endpoint: median survival time, dose: 180.0 mg/kg/injection, schedule: Q01DX001 (ip), vehicle: steroid suspending solution): 140 % of control
T/C (T/C endpoint: median survival time, dose: 180.0 mg/kg/injection, schedule: Q01DX001 (sc), vehicle: steroid suspending solution): 110 % of control
T/C (T/C endpoint: median survival time, dose: 180.0 mg/kg/injection, schedule: Q04DX003 (ip), vehicle: steroid suspending solution): 130 % of control
T/C (T/C endpoint: median survival time, dose: 180.0 mg/kg/injection, schedule: Q04DX003 (sc), vehicle: steroid suspending solution): 110 % of control
T/C (T/C endpoint: median survival time, dose: 300.0 mg/kg/injection, schedule: Q01DX001 (ip), vehicle: steroid suspending solution): 145 % of control
T/C (T/C endpoint: median survival time, dose: 300.0 mg/kg/injection, schedule: Q01DX001 (sc), vehicle: steroid suspending solution): 110 % of control
T/C (T/C endpoint: median survival time, dose: 300.0 mg/kg/injection, schedule: Q04DX003 (ip), vehicle: steroid suspending solution): 185 % of control
T/C (T/C endpoint: median survival time, dose: 300.0 mg/kg/injection, schedule: Q04DX003 (sc), vehicle: steroid suspending solution): 130 % of control
T/C (T/C endpoint: median survival time, dose: 500.0 mg/kg/injection, schedule: Q01DX001 (ip), vehicle: steroid suspending solution): 160 % of control
survivor count (T/C endpoint: median survival time, dose: 500.0 mg/kg/injection, schedule: Q01DX001 (sc), vehicle: steroid suspending solution): 4 of 8
survivor count (T/C endpoint: median survival time, dose: 500.0 mg/kg/injection, schedule: Q04DX003 (ip), vehicle: steroid suspending solution): 8 of 8
T/C (T/C endpoint: median survival time, dose: 500.0 mg/kg/injection, schedule: Q04DX003 (sc), vehicle: steroid suspending solution): 110 % of control [6 of 8 alive]
survivor count (T/C endpoint: median survival time, dose: 833.0 mg/kg/injection, schedule: Q01DX001 (ip), vehicle: steroid suspending solution): 7 of 8
survivor count (T/C endpoint: median survival time, dose: 833.0 mg/kg/injection, schedule: Q01DX001 (sc), vehicle: steroid suspending solution): 0 of 8
